Results: the supplement of paper PMC12067093, “Discovery and optimisation of a covalent ligand for TRIM25 and its application to targeted protein ubiquitination” (Chemical Science, 2025)
The other results are listed elsewhere or left out.

The chains behind the UniProt entries cited, without tags or fusion partners. Where a name states a change or a piece, a line headed by the entry shows the natural chain unless it says otherwise.
UniProt Q9UK59: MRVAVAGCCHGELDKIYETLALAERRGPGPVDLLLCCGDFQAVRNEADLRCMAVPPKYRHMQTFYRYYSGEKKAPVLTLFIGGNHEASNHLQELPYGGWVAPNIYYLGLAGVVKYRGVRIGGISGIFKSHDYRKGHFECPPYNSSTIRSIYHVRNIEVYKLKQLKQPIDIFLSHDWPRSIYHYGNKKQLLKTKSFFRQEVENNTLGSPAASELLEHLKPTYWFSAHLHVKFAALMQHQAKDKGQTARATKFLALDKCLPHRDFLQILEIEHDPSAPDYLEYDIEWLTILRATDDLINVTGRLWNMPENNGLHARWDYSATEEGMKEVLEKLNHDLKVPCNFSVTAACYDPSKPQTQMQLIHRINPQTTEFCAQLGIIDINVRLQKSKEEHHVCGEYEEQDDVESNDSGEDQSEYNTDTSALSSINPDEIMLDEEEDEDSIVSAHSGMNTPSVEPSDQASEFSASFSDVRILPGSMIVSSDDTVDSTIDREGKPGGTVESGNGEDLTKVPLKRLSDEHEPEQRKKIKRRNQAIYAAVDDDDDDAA
UniProt P17812: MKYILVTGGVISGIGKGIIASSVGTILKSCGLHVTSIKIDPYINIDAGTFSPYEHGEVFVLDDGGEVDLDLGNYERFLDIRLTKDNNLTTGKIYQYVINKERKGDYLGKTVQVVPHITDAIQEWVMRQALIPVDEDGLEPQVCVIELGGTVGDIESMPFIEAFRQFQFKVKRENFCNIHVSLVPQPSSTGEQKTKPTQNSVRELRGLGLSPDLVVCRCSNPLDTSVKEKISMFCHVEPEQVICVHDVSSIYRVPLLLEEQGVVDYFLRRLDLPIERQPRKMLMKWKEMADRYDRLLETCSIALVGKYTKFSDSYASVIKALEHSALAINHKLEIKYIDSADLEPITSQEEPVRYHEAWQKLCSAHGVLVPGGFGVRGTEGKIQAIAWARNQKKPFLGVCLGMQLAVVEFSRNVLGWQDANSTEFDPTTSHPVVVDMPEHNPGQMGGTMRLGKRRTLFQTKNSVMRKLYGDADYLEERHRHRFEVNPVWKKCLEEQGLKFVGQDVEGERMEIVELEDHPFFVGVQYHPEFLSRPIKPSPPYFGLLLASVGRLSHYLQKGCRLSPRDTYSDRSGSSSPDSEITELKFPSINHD
UniProt Q14203, whole entry, looked up: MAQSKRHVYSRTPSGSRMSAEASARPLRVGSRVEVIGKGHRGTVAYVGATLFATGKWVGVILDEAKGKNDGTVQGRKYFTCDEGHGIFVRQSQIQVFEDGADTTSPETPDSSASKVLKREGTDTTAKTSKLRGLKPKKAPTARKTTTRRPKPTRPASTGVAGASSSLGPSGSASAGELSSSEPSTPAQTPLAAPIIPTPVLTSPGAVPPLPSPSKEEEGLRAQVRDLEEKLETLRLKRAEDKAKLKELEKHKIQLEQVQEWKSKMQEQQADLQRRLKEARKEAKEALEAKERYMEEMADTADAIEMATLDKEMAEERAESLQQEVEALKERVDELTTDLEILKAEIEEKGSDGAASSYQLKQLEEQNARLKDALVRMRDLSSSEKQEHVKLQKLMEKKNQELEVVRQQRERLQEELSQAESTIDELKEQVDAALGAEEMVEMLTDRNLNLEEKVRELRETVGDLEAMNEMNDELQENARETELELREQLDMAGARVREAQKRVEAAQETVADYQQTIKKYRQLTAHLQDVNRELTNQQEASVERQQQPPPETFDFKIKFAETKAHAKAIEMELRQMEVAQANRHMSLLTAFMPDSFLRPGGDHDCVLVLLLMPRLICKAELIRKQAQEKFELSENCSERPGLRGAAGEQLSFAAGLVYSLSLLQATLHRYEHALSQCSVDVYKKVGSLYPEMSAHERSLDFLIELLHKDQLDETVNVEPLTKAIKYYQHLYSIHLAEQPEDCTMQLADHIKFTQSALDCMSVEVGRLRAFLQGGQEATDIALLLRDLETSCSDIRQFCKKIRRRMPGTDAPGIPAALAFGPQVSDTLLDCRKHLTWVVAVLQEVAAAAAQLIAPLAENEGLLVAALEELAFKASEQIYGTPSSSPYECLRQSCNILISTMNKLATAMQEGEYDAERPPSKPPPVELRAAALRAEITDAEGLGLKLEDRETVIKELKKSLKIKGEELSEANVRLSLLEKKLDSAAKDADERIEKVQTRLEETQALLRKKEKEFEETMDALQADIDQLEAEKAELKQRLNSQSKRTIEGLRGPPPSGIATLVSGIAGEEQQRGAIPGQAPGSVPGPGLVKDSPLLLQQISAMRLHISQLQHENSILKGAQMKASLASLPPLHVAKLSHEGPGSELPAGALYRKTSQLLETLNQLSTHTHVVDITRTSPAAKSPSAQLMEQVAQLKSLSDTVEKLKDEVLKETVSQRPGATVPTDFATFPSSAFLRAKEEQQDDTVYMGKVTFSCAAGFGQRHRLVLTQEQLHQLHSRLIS
UniProt Q9UJW0, whole entry, looked up: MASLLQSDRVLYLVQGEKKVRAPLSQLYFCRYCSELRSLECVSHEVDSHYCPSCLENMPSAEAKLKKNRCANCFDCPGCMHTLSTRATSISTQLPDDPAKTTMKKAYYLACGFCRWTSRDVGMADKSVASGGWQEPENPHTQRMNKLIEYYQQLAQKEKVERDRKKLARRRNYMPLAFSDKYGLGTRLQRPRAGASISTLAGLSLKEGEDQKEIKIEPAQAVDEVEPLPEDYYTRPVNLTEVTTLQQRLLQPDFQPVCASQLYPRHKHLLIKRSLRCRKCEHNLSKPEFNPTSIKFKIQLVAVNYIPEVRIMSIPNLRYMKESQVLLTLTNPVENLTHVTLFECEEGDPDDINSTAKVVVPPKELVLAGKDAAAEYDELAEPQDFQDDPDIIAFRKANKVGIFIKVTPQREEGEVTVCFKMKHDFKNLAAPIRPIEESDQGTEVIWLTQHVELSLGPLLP
UniProt Q96C86: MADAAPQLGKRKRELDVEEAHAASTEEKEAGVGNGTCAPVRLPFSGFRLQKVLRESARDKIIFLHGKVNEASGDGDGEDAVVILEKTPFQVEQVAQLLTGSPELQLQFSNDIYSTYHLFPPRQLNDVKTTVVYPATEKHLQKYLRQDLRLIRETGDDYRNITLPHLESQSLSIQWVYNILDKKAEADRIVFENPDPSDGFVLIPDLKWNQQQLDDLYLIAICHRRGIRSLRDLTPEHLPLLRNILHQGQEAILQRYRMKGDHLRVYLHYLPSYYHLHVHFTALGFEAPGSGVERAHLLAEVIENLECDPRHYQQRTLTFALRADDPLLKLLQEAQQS
UniProt P32321: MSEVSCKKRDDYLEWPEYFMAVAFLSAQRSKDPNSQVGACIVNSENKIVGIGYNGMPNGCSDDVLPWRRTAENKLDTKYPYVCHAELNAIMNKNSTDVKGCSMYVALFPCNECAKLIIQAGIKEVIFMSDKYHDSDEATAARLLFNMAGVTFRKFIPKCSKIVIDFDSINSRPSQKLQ
UniProt Q9HCG8: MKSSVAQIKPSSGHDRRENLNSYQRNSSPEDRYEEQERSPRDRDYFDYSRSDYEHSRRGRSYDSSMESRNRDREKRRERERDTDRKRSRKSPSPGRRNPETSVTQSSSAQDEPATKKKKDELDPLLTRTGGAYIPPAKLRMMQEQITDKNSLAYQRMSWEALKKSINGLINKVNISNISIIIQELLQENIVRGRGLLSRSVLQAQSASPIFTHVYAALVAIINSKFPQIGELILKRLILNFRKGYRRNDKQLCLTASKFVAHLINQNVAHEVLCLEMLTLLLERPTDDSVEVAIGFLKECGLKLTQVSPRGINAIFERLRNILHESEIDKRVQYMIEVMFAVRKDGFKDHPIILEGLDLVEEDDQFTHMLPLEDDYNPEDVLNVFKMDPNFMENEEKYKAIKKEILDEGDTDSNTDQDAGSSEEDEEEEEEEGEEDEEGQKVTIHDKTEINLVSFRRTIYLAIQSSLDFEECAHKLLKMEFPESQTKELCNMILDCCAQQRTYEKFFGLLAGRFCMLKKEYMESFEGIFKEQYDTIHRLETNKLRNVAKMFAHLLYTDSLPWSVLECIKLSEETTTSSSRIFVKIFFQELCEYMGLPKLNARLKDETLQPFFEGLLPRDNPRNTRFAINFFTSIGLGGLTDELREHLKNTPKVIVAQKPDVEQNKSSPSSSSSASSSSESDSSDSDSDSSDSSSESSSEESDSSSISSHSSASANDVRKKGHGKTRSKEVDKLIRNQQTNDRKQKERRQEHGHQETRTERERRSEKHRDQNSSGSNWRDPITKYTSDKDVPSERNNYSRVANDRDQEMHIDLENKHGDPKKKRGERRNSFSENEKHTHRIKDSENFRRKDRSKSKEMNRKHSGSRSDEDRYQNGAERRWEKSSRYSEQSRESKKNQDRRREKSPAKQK
UniProt Q9UBR2: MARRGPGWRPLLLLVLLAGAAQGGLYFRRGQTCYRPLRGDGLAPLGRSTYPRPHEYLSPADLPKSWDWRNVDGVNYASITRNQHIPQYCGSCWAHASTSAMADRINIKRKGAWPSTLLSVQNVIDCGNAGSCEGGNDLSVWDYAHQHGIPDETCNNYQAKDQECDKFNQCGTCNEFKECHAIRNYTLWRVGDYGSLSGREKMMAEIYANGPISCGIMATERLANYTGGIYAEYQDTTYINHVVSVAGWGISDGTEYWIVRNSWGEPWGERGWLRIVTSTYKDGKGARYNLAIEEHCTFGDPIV
UniProt P61962: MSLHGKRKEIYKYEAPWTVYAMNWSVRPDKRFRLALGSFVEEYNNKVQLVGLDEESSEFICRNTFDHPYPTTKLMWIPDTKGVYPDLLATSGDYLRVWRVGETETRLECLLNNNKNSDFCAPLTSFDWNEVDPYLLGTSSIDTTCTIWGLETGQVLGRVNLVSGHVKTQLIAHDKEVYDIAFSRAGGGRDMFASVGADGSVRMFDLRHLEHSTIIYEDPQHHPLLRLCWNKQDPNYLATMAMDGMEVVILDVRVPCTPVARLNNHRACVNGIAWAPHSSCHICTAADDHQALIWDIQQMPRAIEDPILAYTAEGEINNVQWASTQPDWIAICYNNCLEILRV
UniProt Q13617, whole entry, looked up: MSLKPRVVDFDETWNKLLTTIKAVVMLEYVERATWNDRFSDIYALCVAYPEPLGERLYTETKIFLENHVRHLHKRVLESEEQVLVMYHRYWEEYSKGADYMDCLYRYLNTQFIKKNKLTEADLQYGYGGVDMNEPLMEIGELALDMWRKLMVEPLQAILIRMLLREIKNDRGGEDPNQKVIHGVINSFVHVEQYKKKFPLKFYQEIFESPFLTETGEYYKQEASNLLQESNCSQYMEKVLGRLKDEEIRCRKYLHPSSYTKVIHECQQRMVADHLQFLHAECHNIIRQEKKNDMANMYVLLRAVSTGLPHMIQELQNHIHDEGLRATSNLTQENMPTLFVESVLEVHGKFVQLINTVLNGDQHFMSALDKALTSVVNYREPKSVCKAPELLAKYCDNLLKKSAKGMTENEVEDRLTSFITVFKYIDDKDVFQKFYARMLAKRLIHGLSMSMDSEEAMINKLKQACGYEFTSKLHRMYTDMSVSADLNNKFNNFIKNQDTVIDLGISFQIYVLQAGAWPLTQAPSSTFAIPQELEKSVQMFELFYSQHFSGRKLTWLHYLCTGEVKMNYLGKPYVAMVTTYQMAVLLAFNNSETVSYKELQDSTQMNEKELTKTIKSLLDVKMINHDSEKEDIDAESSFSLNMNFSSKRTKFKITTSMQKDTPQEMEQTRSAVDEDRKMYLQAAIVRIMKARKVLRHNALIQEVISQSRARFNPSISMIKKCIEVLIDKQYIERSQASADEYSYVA
UniProt Q96SD1, whole entry, looked up: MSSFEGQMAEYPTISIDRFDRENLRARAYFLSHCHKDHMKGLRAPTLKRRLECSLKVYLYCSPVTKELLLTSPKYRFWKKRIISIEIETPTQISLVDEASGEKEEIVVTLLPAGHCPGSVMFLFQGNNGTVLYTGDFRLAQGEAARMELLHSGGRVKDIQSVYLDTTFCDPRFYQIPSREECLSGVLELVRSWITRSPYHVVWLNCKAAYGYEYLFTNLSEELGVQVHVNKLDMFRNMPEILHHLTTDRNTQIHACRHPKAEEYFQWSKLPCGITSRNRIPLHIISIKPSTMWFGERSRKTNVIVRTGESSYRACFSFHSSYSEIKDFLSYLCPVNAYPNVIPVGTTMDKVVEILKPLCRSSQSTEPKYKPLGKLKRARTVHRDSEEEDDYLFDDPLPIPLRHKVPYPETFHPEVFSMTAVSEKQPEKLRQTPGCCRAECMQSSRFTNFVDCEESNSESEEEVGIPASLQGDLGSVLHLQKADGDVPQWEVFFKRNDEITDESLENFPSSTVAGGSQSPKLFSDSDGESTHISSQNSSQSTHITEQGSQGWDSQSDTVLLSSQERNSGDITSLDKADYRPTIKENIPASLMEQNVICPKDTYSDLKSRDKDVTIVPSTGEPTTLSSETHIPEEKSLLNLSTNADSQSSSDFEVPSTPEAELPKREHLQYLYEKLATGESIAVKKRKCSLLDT

Compound: CC1Cc2ccccc2N1C(=O)C1CCCN(C1)C(=O)CCl (mixture of isomers) [TRIM25 ligand 11 (diastereomer mixture)]
Experiment: probe-labelled cysteine peptide fold change vs DMSO (competition) (log2 fold change); higher = less target engagement (more negative = stronger competition)
Details: THP-1, incubation time: 4 h
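Further: competitive chemoproteomic profiling in live THP-1 cells with an iodoacetamide desthiobiotin (IA-DTB) probe, comparing probe-labelled peptide intensities in compound-treated cells against DMSO-treated controls.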

Row | Target | probe-labelled cysteine peptide fold change (10 µM) | probe-labelled cysteine peptide fold change (50 µM)
1 | CTSB_P07858_319_GQDHCGIESEVVAGIPR (UniProt P07858) | -0.0342 | -0.204
2 | DCAF6_Q58WW2_593_SCGVPEESASSEK (UniProt Q58WW2) | -0.113 | -0.204
3 | DAP3_P51398_356_EFESCIQYYLENNWLQHEK (UniProt P51398) | -0.224 | -0.224
4 | DARS2_Q6PI48_202_MREYLCNLHGFVDIETPTLFKR (UniProt Q6PI48) | -0.272 | -0.129
5 | CTPS2_Q9NRF8_216_GLGLSPDLIVCR (UniProt Q9NRF8) | 0.357 | 0.0413
6 | DBR1_Q9UK59_371_INPQTTEFCAQLGIIDINVR (UniProt Q9UK59) | -0.241 | -0.277
7 | CTPS1_P17812_176_ENFCNIHVSLVPQPSSTGEQK (UniProt P17812) | 0.174 | -0.085
8 | DALRD3_Q5D0E6_66_FDDGQVPEHLLHALACLQGPGVAPVLR (UniProt Q5D0E6) | 0.263 | 0.397
9 | CUL4B_Q13620_810_FICNDDFK (UniProt Q13620) | 0.0282 | -0.0604
10 | DCTN1_Q14203_636_FELSENCSERPGLR (UniProt Q14203) | 0.0342 | -0.075
11 | CXXC1_Q9P0U4_181+187_RTEDCGHCDFCR (UniProt Q9P0U4) | -0.146 | -0.188
12 | DCTN4_Q9UJW0_280_KCEHNLSKPEFNPTSIK (UniProt Q9UJW0) | 0.0733 | 0.103
13 | DCPS_Q96C86_37_EAGVGNGTCAPVR (UniProt Q96C86) | -0.128 | -0.199
14 | CUL5_Q93034_51_QQWFDLFSDVHAVCLWDDKGPAK (UniProt Q93034) | -0.213 | -0.115
15 | DCTD_P32321_83_YPYVCHAELNAIMNK (UniProt P32321) | 0.113 | 0.15
16 | DCTD_P32321_40_DPNSQVGACIVNSENK (UniProt P32321) | 0.148 | 0.127
17 | CWC22_Q9HCG8_253_QLCLTASK (UniProt Q9HCG8) | -0.105 | -0.0661
18 | CXXC1_Q9P0U4_486_QQAVREDEESNEGDSDDTDLQIFCVSCGHPINPR (UniProt Q9P0U4) | 0.224 | -0.209
19 | DBR1_Q9UK59_36+37_GPGPVDLLLCCGDFQAVR (UniProt Q9UK59) | -0.111 | 0.0553
20 | CXXC1_Q9P0U4_566_VPADEVCGCPLVR (UniProt Q9P0U4) | 0.235 | 0.11

Copied from the results shown (2 entries):
Row | Target | probe-labelled cysteine peptide fold change (10 µM) | probe-labelled cysteine peptide fold change (50 µM)
11 | CXXC1_Q9P0U4_181+187_RTEDCGHCDFCR (UniProt Q9P0U4) | -0.146 | -0.188
12 | DCTN4_Q9UJW0_280_KCEHNLSKPEFNPTSIK (UniProt Q9UJW0) | 0.0733 | 0.103

Next results.

Row | Target | probe-labelled cysteine peptide fold change (10 µM) | probe-labelled cysteine peptide fold change (50 µM)
21 | CTPS1_P17812_30_SCGLHVTSIK (UniProt P17812) | 0.184 | 0.0551
22 | CTSB_P07858_93_EQWPQCPTIK (UniProt P07858) | -0.026 | -0.172
23 | CTSZ_Q9UBR2_33_RGQTCYRPLR (UniProt Q9UBR2) | 0.0804 | 0.00722
24 | CTSB_P07858_319_ILRGQDHCGIESEVVAGIPR (UniProt P07858) | -0.322 | -0.501
25 | CTSZ_Q9UBR2_92_NQHIPQYCGSCWAHASTSAMADR (UniProt Q9UBR2) | 0.19 | 0.0613
26 | DCAF1_Q9Y4B6_521_HTCMALR (UniProt Q9Y4B6) | 0.139 | 0.132
27 | CTSV_O60911_211_ENGGLDSEESYPYVAVDEICK (UniProt O60911) | -0.148 | -0.291
28 | CUX1_P39880-9_375_CAELQVR (UniProt P39880) | 0.164 | 0.049
29 | DCAF7_P61962_109_LECLLNNNK (UniProt P61962) | 0.126 | -0.0123
30 | CTR9_Q6PD62_231_CVGALVGLAVLELNNK (UniProt Q6PD62) | -0.0196 | -0.00394
31 | CUL2_Q13617_282_MVADHLQFLHAECHNIIR (UniProt Q13617) | -0.0719 | -0.0219
32 | DBR1_Q9UK59_139_GHFECPPYNSSTIR (UniProt Q9UK59) | 0.0164 | 0.188
33 | CUL4A_Q13619_633_TLQSLACGK (UniProt Q13619) | 0.00787 | -0.195
34 | DCLRE1C_Q96SD1_34_AYFLSHCHK (UniProt Q96SD1) | 0.0604 | -0.0702
35 | DCPS_Q96C86_37_EAGVGNGTCAPVRLPFSGFR (UniProt Q96C86) | -0.404 | -0.396
36 | CTU2_Q2VPK5_457_REDPQACIEEQLCYSCR (UniProt Q2VPK5) | -0.0571 | 0.0269
37 | DCTN1_Q14203_893_QSCNILISTMNK (UniProt Q14203) | 0.0153 | 0.141
38 | DCTN4_Q9UJW0_280_CEHNLSKPEFNPTSIK (UniProt Q9UJW0) | 0.246 | 0.175
39 | CYTH4_Q9UIA0_49_LKDEIADVFAQIDCFESAEESR (UniProt Q9UIA0) | 0.1 | 0.321
